Source: PubChem BioAssay AID1159584 (Peter MacCallum Cancer Centre, 2016)
Shown is one part, drawn at random, of about 18,000 deposited reagents. Further read-outs or replicates are left out here. The record does not give: the amount of reagent, the time to read-out.

Test: 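Knock-downs that harm CDH1-null cells more than parental MCF10A cells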 (primary screen)
System: human MCF10A breast epithelial cells, parental and CDH1-null
Reagent: siRNA against human genes
Measured: 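ATP luminescence (CellTiter-Glo) viability per line relative to mean mock wells over all plates, and the ratio of CDH1-null to parental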
Scale: CDH1-null / parental viability ratio: higher = CDH1-null cells survive relatively better than parental; CDH1-null viability vs mock: higher = more viable CDH1-null cells
Units: CDH1-null viability vs mock in fraction of mock

{"target": "RP1", "PubChem SID": "SID134316552", "CDH1-null / parental viability ratio": 0.92, "CDH1-null viability vs mock": 0.46}
{"target": "INPP1", "PubChem SID": "SID134313374", "CDH1-null / parental viability ratio": 1.13, "CDH1-null viability vs mock": 0.88}
{"target": "PFN1", "PubChem SID": "SID134316308", "CDH1-null / parental viability ratio": 1.22, "CDH1-null viability vs mock": 0.55}
{"target": "MAGEA2", "PubChem SID": "SID134311746", "CDH1-null / parental viability ratio": 0.7, "CDH1-null viability vs mock": 0.42}
{"target": "DENND5B", "PubChem SID": "SID152153951", "CDH1-null / parental viability ratio": 1.2, "CDH1-null viability vs mock": 0.98}
{"target": "KRTAP4-11", "PubChem SID": "SID135622577", "CDH1-null / parental viability ratio": 1.42, "CDH1-null viability vs mock": 1.19}
{"target": "TACC3", "PubChem SID": "SID134310293", "CDH1-null / parental viability ratio": 1.03, "CDH1-null viability vs mock": 0.79}
{"target": "NT5C1B", "PubChem SID": "SID135621852", "CDH1-null / parental viability ratio": 1.68, "CDH1-null viability vs mock": 0.89}
{"target": "BLVRB", "PubChem SID": "SID134310243", "CDH1-null / parental viability ratio": 1.01, "CDH1-null viability vs mock": 0.99}
{"target": "ZNFX1", "PubChem SID": "SID152154821", "CDH1-null / parental viability ratio": 0.95, "CDH1-null viability vs mock": 0.84}
{"target": "SCARF2", "PubChem SID": "SID135623344", "CDH1-null / parental viability ratio": 0.94, "CDH1-null viability vs mock": 0.94}
{"target": "ERICH1", "PubChem SID": "SID134326387", "CDH1-null / parental viability ratio": 0.81, "CDH1-null viability vs mock": 0.76}
{"target": "ZDHHC2", "PubChem SID": "SID152152136", "CDH1-null / parental viability ratio": 1.13, "CDH1-null viability vs mock": 0.86}
{"target": "RAB31", "PubChem SID": "SID135621883", "CDH1-null / parental viability ratio": 1, "CDH1-null viability vs mock": 0.86}
{"target": "STX4", "PubChem SID": "SID134320256", "CDH1-null / parental viability ratio": 1.22, "CDH1-null viability vs mock": 0.73}
{"target": "ENTHD1", "PubChem SID": "SID134322197", "CDH1-null / parental viability ratio": 1.01, "CDH1-null viability vs mock": 0.74}
{"target": "EIF2B2", "PubChem SID": "SID152153708", "CDH1-null / parental viability ratio": 0.66, "CDH1-null viability vs mock": 0.52}
{"target": "GPSM3", "PubChem SID": "SID134318102", "CDH1-null / parental viability ratio": 0.98, "CDH1-null viability vs mock": 0.82}
{"target": "TINAG", "PubChem SID": "SID134313142", "CDH1-null / parental viability ratio": 1.22, "CDH1-null viability vs mock": 0.71}
{"target": "CNTN6", "PubChem SID": "SID152152846", "CDH1-null / parental viability ratio": 1.05, "CDH1-null viability vs mock": 0.92}
{"target": "UGT8", "PubChem SID": "SID152148971", "CDH1-null / parental viability ratio": 1.14, "CDH1-null viability vs mock": 1.23}
{"target": "KARS1", "PubChem SID": "SID134316409", "CDH1-null / parental viability ratio": 1.39, "CDH1-null viability vs mock": 0.93}
{"target": "NUPR1", "PubChem SID": "SID135622409", "CDH1-null / parental viability ratio": 0.64, "CDH1-null viability vs mock": 0.5}
{"target": "SIGLEC1", "PubChem SID": "SID152149771", "CDH1-null / parental viability ratio": 0.91, "CDH1-null viability vs mock": 0.62}
{"target": "CCM2", "PubChem SID": "SID152154334", "CDH1-null / parental viability ratio": 0.85, "CDH1-null viability vs mock": 0.56}
{"target": "PJVK", "PubChem SID": "SID135625601", "CDH1-null / parental viability ratio": 1.11, "CDH1-null viability vs mock": 0.99}
{"target": "UACA", "PubChem SID": "SID152150342", "CDH1-null / parental viability ratio": 1.12, "CDH1-null viability vs mock": 1.12}
{"target": "KCNK17", "PubChem SID": "SID135621169", "CDH1-null / parental viability ratio": 1.3, "CDH1-null viability vs mock": 0.83}
{"target": "MAPRE1", "PubChem SID": "SID134311986", "CDH1-null / parental viability ratio": 0.87, "CDH1-null viability vs mock": 0.86}
{"target": "SPPL2C", "PubChem SID": "SID134311355", "CDH1-null / parental viability ratio": 1.27, "CDH1-null viability vs mock": 0.89}
{"target": "LCMT1", "PubChem SID": "SID135621771", "CDH1-null / parental viability ratio": 0.98, "CDH1-null viability vs mock": 0.86}
{"target": "TRIML1", "PubChem SID": "SID152148332", "CDH1-null / parental viability ratio": 0.94, "CDH1-null viability vs mock": 0.92}
{"target": "THBS3", "PubChem SID": "SID134323414", "CDH1-null / parental viability ratio": 1.06, "CDH1-null viability vs mock": 0.76}
{"target": "LIG3", "PubChem SID": "SID152147649", "CDH1-null / parental viability ratio": 1.03, "CDH1-null viability vs mock": 1.2}
{"target": "SKOR1", "PubChem SID": "SID152147062", "CDH1-null / parental viability ratio": 1.04, "CDH1-null viability vs mock": 0.94}

Just “CDH1-null viability vs mock”, for 5 of the entries above:
UACA [SID152150342]: 1.12
KCNK17 [SID135621169]: 0.83
MAPRE1 [SID134311986]: 0.86
SPPL2C [SID134311355]: 0.89
LCMT1 [SID135621771]: 0.86
